Consider three molecules from PMC7394235.

Experiment [1] addresses T1, MLO10-CT-BD (C-terminal of AtMLO10, 434-569 aa) (Arabidopsis thaliana) (UniProt Q9FKY5).
T1 sequence: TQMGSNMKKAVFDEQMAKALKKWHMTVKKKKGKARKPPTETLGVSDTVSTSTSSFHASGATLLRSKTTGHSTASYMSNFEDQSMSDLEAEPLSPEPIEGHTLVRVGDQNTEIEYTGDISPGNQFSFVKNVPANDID
In words: two-hybrid; MLO10-CT or its fragments P1-P5 as BD fusion, CaMs/CMLs as AD fusion (pGADT7), co-transformed into yeast AH109; selection on SD lacking Leu, Trp, His with 1.5 mM 3-AT; X-Gal filter assay.

For experiment [2], the target named is T2, MLO10-CT fragment P5 (536-569 aa, BD fusion) (Arabidopsis thaliana) (UniProt Q9FKY5).
T2 sequence: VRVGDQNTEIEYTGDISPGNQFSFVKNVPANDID
The description is as above.

Experiment [3] concerns the target T3, MLO10-nVenus (Arabidopsis thaliana) (UniProt Q9FKY5).
T3 sequence: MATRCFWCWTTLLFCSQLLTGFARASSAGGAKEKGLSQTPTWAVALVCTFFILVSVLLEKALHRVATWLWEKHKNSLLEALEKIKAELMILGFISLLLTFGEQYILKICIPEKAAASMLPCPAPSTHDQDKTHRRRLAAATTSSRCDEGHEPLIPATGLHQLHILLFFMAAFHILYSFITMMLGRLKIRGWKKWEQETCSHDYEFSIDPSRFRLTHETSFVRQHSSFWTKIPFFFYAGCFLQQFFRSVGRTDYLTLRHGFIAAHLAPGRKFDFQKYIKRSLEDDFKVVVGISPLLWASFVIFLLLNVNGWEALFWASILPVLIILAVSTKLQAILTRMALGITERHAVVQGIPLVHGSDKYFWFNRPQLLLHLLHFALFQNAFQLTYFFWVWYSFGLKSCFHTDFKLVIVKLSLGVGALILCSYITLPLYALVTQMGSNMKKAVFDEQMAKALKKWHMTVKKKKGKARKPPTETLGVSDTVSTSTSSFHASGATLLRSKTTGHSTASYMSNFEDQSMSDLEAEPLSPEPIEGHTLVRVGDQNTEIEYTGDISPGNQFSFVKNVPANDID
In words: split reporter; BiFC: MLO10-nVenus and CML9-cCFP co-expressed in Arabidopsis mesophyll protoplasts, 16 h at 23°C in the dark, confocal microscopy.

Results are given in words; binding and its absence hold for the method and conditions named. For some of these results: In cells and extracts the contact can be indirect. Some entries that bind do so weakly or less than the wild type. Tags and fused reporters may be left off the sequences shown.

B1: CML10 (AD fusion in pGADT7) (protein, UniProt P30187 1-191)
chain: MANKFTRQQISEFREQFSVYDKNGDGHITTEEFGAVMRSLGLNLTQAELQEEINDSDLDGDGTINFTEFLCAMAKDTYSEKDLKKDFRLFDIDKNGFISAAEMRYVRTILRWKQTDEEIDEIIKAADVDGDGQINYREFARLMMAKNQGHDTKYDTTGGTLERDLAAGVAKNIIAAPMTDFIKNLFEALFS
Turning to B1, the binding entry in experiment [1] is reported as “no binding”.

B2: CML9-AD (AtCML9 in pGADT7) (protein, UniProt Q9S744 1-151)
chain: MADAFTDEQIQEFYEAFCLIDKDSDGFITKEKLTKVMKSMGKNPKAEQLQQMMSDVDIFGNGGITFDDFLYIMAQNTSQESASDELIEVFRVFDRDGDGLISQLELGEGMKDMGMKITAEEAEHMVREADLDGDGFLSFHEFSKMMIAASY
For B2, the binding entry in experiment [2] and in experiment [1] was “binds” throughout.

B3: CML9-cCFP (protein, UniProt Q9S744 1-151)
chain: MADAFTDEQIQEFYEAFCLIDKDSDGFITKEKLTKVMKSMGKNPKAEQLQQMMSDVDIFGNGGITFDDFLYIMAQNTSQESASDELIEVFRVFDRDGDGLISQLELGEGMKDMGMKITAEEAEHMVREADLDGDGFLSFHEFSKMMIAASY
Take B3: the binding entry in experiment [3] was “binds”.
